In article PMC5716708:
No constants are given. Whether binding was seen depends on the method and setting. For some assays here: Binding seen in cells or lysates may run through a third protein. Some binding calls cover weakened binding; strength is not graded here.

Amino acid sequences for entries named in this document (tags omitted). A change or cut given only in a name is not applied to a line headed by its entry. Residues count along the entry.
UniProt P07333: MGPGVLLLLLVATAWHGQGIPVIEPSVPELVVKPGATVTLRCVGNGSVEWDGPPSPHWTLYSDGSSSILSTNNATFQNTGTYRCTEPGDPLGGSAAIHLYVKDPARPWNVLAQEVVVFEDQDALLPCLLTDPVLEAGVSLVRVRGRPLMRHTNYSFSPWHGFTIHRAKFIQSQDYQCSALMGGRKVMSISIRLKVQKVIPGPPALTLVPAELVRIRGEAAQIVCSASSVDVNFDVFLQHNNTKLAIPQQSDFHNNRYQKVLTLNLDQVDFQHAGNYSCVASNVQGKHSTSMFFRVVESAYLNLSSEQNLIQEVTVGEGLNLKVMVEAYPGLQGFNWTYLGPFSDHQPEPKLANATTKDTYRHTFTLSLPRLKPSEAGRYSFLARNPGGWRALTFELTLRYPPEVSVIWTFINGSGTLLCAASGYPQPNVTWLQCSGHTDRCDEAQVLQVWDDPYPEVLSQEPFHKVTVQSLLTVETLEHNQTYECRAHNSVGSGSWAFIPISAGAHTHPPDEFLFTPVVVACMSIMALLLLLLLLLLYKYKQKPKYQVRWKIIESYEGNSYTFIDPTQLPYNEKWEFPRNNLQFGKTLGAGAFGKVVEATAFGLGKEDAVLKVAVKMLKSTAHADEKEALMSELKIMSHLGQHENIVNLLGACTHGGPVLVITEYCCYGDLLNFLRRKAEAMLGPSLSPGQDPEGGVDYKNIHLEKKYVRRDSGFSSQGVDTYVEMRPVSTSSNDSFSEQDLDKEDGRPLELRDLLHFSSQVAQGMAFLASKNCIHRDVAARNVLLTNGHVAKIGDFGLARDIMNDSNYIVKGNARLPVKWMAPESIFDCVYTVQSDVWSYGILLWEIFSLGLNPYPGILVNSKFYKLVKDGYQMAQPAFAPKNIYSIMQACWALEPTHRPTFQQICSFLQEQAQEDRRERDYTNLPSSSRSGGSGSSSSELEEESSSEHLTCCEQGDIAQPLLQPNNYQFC
CSF-1R in the cell lysates of Figure 7C: residues 20-972 of P07333

B1: TSC-22 wild type (Full 1-144), pB42AD prey (protein, UniProt Q15714-2 1-144)
chain: MKSQWCRPVAMDLGVYQLRHFSISFLSSLLGTENASVRLDNSSSGASVVAIDNKIEQAMDLVKSHLMYAVREEVEVLKEQIKELIEKNSQLEQENNLLKTLASPEQLAQFQAQLQTGSPPATTQPQGTTQPPAQPASQGSGPTA
B2: TSC-22 expressed from pcDNA4-TSC-22 (protein, UniProt Q15714-2 1-144)
chain: B1 chain
B3: TSC-22 deletion construct 1-52, pB42AD prey (domain or fragment, UniProt Q15714-2 1-52)
chain: MKSQWCRPVAMDLGVYQLRHFSISFLSSLLGTENASVRLDNSSSGASVVAID
B4: Colony stimulating factor-1 (CSF-1) in the cell lysates of Figure 7C (ligand, UniProt P09603 33-554)
chain: EEVSEYCSHMIGSGHLQSLQRLIDSQMETSCQITFEFVDQEQLKDPVCYLKKAFLLVQDIMEDTMRFRDNTPNAIAIVQLQELSLRLKSCFTKDYEEHDKACVRTFYETPLQLLEKVKNVFNETKNLLDKDWNIFSKNCNNSFAECSSQDVVTKPDCNCLYPKAIPSSDPASVSPHQPLAPSMAPVAGLTWEDSEGTEGSSLLPGEQPLHTVDPGSAKQRPPRSTCQSFEPPETPVVKDSTIGGSPQPRPSVGAFNPGMEDILDSAMGTNWVPEEASGEASEIPVPQGTELSPSRPGGGSMQTEPARPSNFLSASSPLPASAKGQQPADVTGTALPRVGPVRPTGQDWNHTPQKTDHPSALLRDPPEPGSPRISSLRPQGLSNPSTLSAQPQLSRSHSSGSVLPLGELEGRRSTRDRRSPAEPEGGPASEGAARPLPRFNSVPLTDTGHERQSEGSFSPQLQESVFHLLVPSVILVLLAVGGLLFYRWRRRSHQEPQRADSPLEQPEGSPLTQDDRQVELPV

Columns and labels:
[1] = target: CSF-1R wild type (Full 1-972), pGilda bait (UniProt P07333); assay: two-hybrid; Matchmaker LexA system in yeast EGY48; wild type and deleted CSF-1R in pGilda as baits, wild type and deleted TSC-22 in pB42AD as preys; growth on plates lacking leucine and β-galactosidase on X-gal plates; 30°C
[2] = target: CSF-1R expressed from pcDNA4-CSF-1R (UniProt P07333); assay: co-IP; HEK293a cells transfected with TSC-22 and CSF-1R plasmids; NP-40 lysis buffer (20mM Tris-HCl pH8.0, 150mM NaCl, 1% NP-40); IP with CSF-1R or TSC-22 antibody overnight at 4°C, protein A/G agarose; western blot
[3] = target: CSF-1R in the cell lysates of Figure 7C (UniProt P07333); assay: co-IP; cell lysates with and without overexpressed TSC-22 (Figure 7C); IP with TSC-22 or CSF-1R antibody, immunoblot for CSF-1R, TSC-22 or CSF-1; NP-40 lysis buffer

Binder | binding [1] | also measured
B1 | binds | 
B2 |  | binding [2]: binds
B3 | binds | 
QAQLQTGSPPATTQPQGTTQPPAQPASQGSGPTA (domain or fragment, UniProt Q15714-2 111-144) [TSC-22 deletion construct 111-144, pB42AD prey] | binds | 
B4 |  | binding [3]: binds
